Test in all cases: affinity purification with mass spectrometry; endogenous proteins; NT2 nuclear lysates immunoprecipitated with α-PCGF1, α-PCGF2, α-PCGF4/BMI1 or α-RNF2/RING1B, rabbit IgG as negative control; trypsin digestion on beads, label-free quantitation (MaxQuant), FDR 1%, ≥1.5-fold change
Assay [1] deals with PCGF1 (human (endogenous in NT2)) (UniProt Q9BSM1).
Assay [2] has as its target T1, PCGF2 (human (endogenous in NT2)) (UniProt P35227).
T1 sequence: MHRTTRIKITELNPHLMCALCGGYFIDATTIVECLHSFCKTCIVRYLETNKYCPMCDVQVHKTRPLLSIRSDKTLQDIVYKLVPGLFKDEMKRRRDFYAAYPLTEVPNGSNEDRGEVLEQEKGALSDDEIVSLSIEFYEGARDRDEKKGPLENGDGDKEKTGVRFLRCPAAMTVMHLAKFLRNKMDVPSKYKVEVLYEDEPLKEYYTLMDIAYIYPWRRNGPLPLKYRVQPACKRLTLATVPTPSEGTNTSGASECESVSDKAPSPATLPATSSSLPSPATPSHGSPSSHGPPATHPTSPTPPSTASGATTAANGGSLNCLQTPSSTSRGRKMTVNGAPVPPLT

Sequences of proteins named here, by UniProt entry; tags and fusion partners are left off.
UniProt Q9BSM1: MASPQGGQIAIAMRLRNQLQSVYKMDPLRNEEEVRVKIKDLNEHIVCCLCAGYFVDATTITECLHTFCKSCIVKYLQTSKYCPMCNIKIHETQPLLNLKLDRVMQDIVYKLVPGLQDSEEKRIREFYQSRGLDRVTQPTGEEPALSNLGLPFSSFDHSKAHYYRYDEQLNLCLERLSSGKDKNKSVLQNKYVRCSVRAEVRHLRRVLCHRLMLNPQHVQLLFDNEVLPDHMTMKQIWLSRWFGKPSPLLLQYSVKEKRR
UniProt P35226: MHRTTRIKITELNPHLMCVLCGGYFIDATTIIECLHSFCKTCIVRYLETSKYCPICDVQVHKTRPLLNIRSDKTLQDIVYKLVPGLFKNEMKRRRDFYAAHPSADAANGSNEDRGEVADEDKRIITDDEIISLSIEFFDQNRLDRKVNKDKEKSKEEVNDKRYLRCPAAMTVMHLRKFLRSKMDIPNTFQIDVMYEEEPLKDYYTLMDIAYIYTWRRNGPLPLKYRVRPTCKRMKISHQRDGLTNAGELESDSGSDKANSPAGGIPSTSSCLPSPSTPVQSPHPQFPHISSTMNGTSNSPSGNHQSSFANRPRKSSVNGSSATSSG
UniProt Q6W2J9: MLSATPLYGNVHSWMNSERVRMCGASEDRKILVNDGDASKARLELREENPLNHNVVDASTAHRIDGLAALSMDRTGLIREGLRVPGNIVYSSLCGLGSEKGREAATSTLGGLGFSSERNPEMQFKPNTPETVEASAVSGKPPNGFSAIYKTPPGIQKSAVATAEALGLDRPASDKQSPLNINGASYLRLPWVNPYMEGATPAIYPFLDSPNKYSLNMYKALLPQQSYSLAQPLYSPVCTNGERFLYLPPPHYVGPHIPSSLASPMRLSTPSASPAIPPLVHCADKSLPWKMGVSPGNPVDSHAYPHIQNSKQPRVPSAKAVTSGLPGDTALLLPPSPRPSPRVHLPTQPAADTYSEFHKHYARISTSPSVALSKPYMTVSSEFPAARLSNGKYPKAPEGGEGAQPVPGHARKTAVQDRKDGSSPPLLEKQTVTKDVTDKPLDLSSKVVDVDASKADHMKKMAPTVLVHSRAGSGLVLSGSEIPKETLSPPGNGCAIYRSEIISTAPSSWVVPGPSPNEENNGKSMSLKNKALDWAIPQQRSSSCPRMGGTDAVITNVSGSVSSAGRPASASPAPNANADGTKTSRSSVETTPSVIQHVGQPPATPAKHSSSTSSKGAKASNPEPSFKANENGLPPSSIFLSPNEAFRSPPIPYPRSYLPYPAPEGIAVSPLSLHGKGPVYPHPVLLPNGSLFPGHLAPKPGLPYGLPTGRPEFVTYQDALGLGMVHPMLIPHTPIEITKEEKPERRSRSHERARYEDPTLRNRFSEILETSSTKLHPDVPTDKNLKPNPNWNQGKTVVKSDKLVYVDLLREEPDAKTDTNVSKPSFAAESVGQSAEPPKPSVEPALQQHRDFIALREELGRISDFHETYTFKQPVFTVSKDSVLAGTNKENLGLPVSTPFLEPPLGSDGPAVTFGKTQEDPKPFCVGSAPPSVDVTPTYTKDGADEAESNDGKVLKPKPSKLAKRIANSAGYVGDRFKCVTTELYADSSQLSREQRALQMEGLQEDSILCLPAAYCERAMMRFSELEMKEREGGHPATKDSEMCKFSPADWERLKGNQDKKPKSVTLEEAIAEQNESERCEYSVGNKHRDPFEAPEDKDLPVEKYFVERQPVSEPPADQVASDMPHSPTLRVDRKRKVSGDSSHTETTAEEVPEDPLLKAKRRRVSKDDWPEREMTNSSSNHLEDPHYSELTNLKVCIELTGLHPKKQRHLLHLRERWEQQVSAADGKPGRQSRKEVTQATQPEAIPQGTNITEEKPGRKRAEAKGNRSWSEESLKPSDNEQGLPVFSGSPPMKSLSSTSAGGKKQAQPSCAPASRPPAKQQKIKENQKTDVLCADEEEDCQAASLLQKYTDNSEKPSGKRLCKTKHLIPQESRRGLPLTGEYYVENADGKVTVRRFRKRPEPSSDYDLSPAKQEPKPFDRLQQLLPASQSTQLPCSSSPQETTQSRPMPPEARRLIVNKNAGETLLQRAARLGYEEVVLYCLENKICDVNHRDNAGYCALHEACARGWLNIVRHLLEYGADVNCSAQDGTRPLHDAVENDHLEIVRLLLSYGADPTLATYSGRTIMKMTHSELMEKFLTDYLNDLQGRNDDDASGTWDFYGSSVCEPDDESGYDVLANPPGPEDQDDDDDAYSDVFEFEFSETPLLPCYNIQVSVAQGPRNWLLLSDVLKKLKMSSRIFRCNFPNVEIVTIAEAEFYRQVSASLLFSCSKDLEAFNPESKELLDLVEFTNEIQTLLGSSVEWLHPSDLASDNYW
UniProt Q14781: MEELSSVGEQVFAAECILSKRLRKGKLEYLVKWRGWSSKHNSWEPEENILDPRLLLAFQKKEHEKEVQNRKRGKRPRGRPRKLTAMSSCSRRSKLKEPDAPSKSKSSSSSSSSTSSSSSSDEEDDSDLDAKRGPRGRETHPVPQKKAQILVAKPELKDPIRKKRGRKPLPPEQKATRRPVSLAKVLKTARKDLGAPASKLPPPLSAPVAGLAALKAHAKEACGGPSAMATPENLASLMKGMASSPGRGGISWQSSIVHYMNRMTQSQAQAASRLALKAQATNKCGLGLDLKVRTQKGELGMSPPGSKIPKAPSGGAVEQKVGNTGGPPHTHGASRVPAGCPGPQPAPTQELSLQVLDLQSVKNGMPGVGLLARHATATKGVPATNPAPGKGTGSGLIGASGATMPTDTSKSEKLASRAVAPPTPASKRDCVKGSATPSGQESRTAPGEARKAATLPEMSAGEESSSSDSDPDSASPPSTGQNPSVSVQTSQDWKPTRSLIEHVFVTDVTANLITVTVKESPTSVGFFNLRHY
UniProt Q9HC52: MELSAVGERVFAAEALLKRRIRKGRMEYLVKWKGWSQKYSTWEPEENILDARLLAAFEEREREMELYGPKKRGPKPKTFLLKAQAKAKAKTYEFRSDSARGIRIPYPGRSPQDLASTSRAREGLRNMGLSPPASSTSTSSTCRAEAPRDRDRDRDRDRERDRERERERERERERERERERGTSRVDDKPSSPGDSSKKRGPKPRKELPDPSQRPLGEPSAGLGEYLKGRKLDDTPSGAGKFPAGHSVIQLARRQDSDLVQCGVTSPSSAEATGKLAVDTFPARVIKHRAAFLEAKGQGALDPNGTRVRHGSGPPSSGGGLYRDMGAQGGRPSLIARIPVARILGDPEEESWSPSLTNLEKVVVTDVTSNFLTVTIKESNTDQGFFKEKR
UniProt P67870: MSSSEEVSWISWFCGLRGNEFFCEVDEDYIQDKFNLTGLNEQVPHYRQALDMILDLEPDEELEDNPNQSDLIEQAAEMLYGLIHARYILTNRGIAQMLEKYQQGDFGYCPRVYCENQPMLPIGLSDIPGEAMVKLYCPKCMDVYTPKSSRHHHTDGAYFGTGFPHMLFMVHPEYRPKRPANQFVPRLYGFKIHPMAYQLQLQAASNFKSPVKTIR
UniProt Q09028: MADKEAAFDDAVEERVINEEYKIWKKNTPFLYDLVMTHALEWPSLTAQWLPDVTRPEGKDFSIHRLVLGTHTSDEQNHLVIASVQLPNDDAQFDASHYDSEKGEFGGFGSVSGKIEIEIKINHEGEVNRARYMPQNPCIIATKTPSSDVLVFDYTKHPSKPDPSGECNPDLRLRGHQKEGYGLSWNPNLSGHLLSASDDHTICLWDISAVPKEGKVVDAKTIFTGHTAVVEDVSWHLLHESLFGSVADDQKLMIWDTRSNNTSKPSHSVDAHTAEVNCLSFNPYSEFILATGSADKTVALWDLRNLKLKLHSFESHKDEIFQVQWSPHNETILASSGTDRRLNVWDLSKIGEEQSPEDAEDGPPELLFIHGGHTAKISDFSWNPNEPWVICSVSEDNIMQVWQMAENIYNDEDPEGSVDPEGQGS
UniProt Q06587: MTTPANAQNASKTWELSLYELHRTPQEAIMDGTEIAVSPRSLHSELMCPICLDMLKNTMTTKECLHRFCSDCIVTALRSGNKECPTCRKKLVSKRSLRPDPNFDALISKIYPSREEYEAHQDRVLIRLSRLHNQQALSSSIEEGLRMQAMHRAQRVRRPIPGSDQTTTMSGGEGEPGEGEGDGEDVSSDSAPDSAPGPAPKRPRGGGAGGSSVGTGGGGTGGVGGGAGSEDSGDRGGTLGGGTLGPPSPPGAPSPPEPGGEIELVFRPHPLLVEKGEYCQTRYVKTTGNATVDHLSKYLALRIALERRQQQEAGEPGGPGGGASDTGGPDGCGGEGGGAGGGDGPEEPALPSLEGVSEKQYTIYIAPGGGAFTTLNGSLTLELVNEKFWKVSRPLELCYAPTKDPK
UniProt Q99496: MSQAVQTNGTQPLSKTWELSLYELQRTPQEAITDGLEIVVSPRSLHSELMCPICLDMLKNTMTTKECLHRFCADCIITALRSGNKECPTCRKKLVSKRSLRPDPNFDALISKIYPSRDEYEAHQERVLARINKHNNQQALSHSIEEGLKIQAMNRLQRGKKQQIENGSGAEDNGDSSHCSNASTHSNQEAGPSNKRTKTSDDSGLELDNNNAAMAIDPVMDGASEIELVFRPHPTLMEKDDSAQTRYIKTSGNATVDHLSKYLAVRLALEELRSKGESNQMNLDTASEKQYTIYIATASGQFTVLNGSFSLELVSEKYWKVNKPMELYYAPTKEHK
UniProt Q9UQR0: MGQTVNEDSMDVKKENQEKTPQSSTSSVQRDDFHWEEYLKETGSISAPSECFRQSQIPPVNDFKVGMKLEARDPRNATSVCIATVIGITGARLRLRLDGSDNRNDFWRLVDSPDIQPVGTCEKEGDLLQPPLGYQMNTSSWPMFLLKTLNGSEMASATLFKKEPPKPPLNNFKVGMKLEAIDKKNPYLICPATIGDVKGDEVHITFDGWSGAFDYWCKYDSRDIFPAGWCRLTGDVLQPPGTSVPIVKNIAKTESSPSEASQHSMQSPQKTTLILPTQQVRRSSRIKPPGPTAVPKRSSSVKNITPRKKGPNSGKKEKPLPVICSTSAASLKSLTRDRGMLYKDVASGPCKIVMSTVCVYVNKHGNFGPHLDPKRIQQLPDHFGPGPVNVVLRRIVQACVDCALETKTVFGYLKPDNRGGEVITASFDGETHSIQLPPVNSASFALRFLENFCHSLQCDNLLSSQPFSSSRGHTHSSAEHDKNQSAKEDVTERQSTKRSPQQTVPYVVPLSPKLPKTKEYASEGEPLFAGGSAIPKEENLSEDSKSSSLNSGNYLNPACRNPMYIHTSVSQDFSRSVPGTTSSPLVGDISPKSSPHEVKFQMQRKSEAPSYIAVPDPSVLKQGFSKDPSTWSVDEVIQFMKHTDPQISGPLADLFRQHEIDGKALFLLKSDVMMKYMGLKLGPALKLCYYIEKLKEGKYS
UniProt Q93009: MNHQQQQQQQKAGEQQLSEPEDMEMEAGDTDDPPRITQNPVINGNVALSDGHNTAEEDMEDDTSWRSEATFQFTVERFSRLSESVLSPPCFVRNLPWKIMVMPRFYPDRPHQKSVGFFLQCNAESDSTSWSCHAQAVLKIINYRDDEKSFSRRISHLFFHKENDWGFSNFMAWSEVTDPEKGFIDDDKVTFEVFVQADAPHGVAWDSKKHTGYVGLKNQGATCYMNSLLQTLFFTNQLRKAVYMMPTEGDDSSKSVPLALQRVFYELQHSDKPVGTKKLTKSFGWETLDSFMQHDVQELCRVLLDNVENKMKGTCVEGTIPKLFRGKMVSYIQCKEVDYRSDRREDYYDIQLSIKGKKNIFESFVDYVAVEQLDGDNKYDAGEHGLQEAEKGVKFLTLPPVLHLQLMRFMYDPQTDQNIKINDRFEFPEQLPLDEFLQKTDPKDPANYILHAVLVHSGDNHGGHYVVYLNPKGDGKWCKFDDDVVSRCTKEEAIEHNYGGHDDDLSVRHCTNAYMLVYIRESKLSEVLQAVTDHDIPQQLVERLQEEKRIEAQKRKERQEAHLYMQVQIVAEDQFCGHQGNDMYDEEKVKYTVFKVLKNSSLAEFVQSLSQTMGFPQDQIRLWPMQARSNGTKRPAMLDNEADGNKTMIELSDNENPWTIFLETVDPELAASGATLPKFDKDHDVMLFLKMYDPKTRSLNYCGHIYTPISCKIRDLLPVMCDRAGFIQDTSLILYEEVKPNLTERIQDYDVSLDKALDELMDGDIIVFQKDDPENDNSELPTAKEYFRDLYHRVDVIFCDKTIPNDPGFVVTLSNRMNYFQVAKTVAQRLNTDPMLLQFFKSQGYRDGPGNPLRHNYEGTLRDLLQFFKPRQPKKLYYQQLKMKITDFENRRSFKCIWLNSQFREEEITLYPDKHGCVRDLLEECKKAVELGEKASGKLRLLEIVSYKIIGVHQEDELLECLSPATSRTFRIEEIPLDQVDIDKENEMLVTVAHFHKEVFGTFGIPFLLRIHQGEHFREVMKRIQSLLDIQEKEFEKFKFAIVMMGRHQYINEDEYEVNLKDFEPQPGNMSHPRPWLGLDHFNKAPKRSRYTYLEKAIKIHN

Assay [3] deals with PCGF4/BMI1 (human (endogenous in NT2)) (UniProt P35226).

No constants are given. Whether binding was seen depends on the method and setting. Binding seen in cells or lysates may run through a third protein. A yes stands for co-enrichment or nearness to the bait. Other partners may have been found. For part of these data: No binding means not detected with the bait.

Regarding BCOR (from UniProt Q6W2J9 1-1755), the binding result in assay [1] was “binds”; in assay [2], “no binding”; in assay [3] it was “no binding”.

As to CBX2 (from UniProt Q14781 1-532), the binding result in assay [3] is recorded as “binds”.

As for CBX8 (from UniProt Q9HC52 1-389), the binding result in assay [2] is “binds”.

Turning to CSNK2B (from UniProt P67870 1-215), the binding entry in assay [1], in assay [2] and in assay [3] was “binds” throughout.

On to RBBP4 (from UniProt Q09028 1-425), for which the binding entry in assay [2] and in assay [3] was “binds” each time.

With RING1A (from UniProt Q06587 1-406), the binding result in assay [1], in assay [2] and in assay [3] was “binds” in each case.

In the case of RNF2/RING1B (from UniProt Q99496 1-336), the binding entry in assay [2] is given as “binds”.

Turning to SCMH1 (from UniProt Q96GD3 1-660), the binding entry in assay [2] and in assay [3] was “binds” throughout.

Regarding SCML2 (from UniProt Q9UQR0 1-700), the binding entry in assay [2] and in assay [3] was “binds” in each case.

Take USP7 (from UniProt Q93009 1-1102): the binding result in assay [1], in assay [2] and in assay [3] was “binds” in each case.

B1: PHC2 (protein, UniProt Q8IXK0 1-858)
chain: MENELPVPHTSSSACATSSTSGASSSSGCNNSSSGGSGRPTGPQISVYSGIPDRQTVQVIQQALHRQPSTAAQYLQQMYAAQQQHLMLQTAALQQQHLSSAQLQSLAAVQQASLVSNRQGSTSGSNVSAQAPAQSSSINLAASPAAAQLLNRAQSVNSAAASGIAQQAVLLGNTSSPALTASQAQMYLRAQMLIFTPTATVATVQPELGTGSPARPPTPAQVQNLTLRTQQTPAAAASGPTPTQPVLPSLALKPTPGGSQPLPTPAQSRNTAQASPAGAKPGIADSVMEPHKKGDGNSSVPGSMEGRAGLSRTVPAVAAHPLIAPAYAQLQPHQLLPQPSSKHLQPQFVIQQQPQPQQQQPPPQQSRPVLQAEPHPQLASVSPSVALQPSSEAHAMPLGPVTPALPLQCPTANLHKPGGSQQCHPPTPDTGPQNGHPEGVPHTPQRRFQHTSAVILQLQPASPPQQCVPDDWKEVAPGEKSVPETRSGPSPHQQAIVTAMPGGLPVPTSPNIQPSPAHETGQGIVHALTDLSSPGMTSGNGNSASSIAGTAPQNGENKPPQAIVKPQILTHVIEGFVIQEGAEPFPVGRSSLLVGNLKKKYAQGFLPEKLPQQDHTTTTDSEMEEPYLQESKEEGAPLKLKCELCGRVDFAYKFKRSKRFCSMACAKRYNVGCTKRVGLFHSDRSKLQKAGAATHNRRRASKASLPPLTKDTKKQPTGTVPLSVTAALQLTHSQEDSSRCSDNSSYEEPLSPISASSSTSRRRQGQRDLELPDMHMRDLVGMGHHFLPSEPTKWNVEDVYEFIRSLPGCQEIAEEFRAQEIDGQALLLLKEDHLMSAMNIKLGPALKIYARISMLKDS
In the case of B1, the binding result in assay [2] and in assay [3] was “binds” each time.

B2: KDM2B (protein, UniProt Q8NHM5 1-1336)
chain: MAGPQMGGSAEDHPPRKRHAAEKQKKKTVIYTKCFEFESATQRPIDRQRYDENEDLSDVEEIVSVRGFSLEEKLRSQLYQGDFVHAMEGKDFNYEYVQREALRVPLIFREKDGLGIKMPDPDFTVRDVKLLVGSRRLVDVMDVNTQKGTEMSMSQFVRYYETPEAQRDKLYNVISLEFSHTKLEHLVKRPTVVDLVDWVDNMWPQHLKEKQTEATNAIAEMKYPKVKKYCLMSVKGCFTDFHIDFGGTSVWYHVFRGGKIFWLIPPTLHNLALYEEWVLSGKQSDIFLGDRVERCQRIELKQGYTFFIPSGWIHAVYTPVDSLVFGGNILHSFNVPMQLRIYEIEDRTRVQPKFRYPFYYEMCWYVLERYVYCVTQRSHLTQEYQRESMLIDAPRKPSIDGFSSDSWLEMEEEACDQQPQEEEEKDEEGEGRDRAPKPPTDGSTSPTSTPSEDQEALGKKPKAPALRFLKRTLSNESEESVKSTTLAVDYPKTPTGSPATEVSAKWTHLTEFELKGLKALVEKLESLPENKKCVPEGIEDPQALLEGVKNVLKEHADDDPSLAITGVPVVTWPKKTPKNRAVGRPKGKLGPASAVKLAANRTTAGARRRRTRCRKCEACLRTECGECHFCKDMKKFGGPGRMKQSCIMRQCIAPVLPHTAVCLVCGEAGKEDTVEEEEGKFNLMLMECSICNEIIHPGCLKIKESEGVVNDELPNCWECPKCNHAGKTGKQKRGPGFKYASNLPGSLLKEQKMNRDNKEGQEPAKRRSECEEAPRRRSDEHSKKVPPDGLLRRKSDDVHLRKKRKYEKPQELSGRKRASSLQTSPGSSSHLSPRPPLGSSLSPWWRSSLTYFQQQLKPGKEDKLFRKKRRSWKNAEDRMALANKPLRRFKQEPEDELPEAPPKTRESDHSRSSSPTAGPSTEGAEGPEEKKKVKMRRKRRLPNKELSRELSKELNHEIQRTENSLANENQQPIKSEPESEGEEPKRPPGICERPHRFSKGLNGTPRELRHQLGPSLRSPPRVISRPPPSVSPPKCIQMERHVIRPPPISPPPDSLPLDDGAAHVMHREVWMAVFSYLSHQDLCVCMRVCRTWNRWCCDKRLWTRIDLNHCKSITPLMLSGIIRRQPVSLDLSWTNISKKQLSWLINRLPGLRDLVLSGCSWIAVSALCSSSCPLLRTLDVQWVEGLKDAQMRDLLSPPTDNRPGQMDNRSKLRNIVELRLAGLDITDASLRLIIRHMPLLSKLHLSYCNHVTDQSINLLTAVGTTTRDSLTEINLSDCNKVTDQCLSFFKRCGNICHIDLRYCKQVTKEGCEQFIAEMSVSVQFGQVEEKLLQKLS
On to B2, for which the binding entry in assay [1], in assay [2] and in assay [3] was “binds” in each case.

B3: PHC1 (protein, UniProt P78364 1-1004)
chain: METESEQNSNSTNGSSSSGGSSRPQIAQMSLYERQAVQALQALQRQPNAAQYFHQFMLQQQLSNAQLHSLAAVQQATIAASRQASSPNTSTTQQQTTTTQASINLATTSAAQLISRSQSVSSPSATTLTQSVLLGNTTSPPLNQSQAQMYLRPQLGNLLQVNRTLGRNVPLASQLILMPNGAVAAVQQEVPSAQSPGVHADADQVQNLAVRNQQASAQGPQMQGSTQKAIPPGASPVSSLSQASSQALAVAQASSGATNQSLNLSQAGGGSGNSIPGSMGPGGGGQAHGGLGQLPSSGMGGGSCPRKGTGVVQPLPAAQTVTVSQGSQTEAESAAAKKAEADGSGQQNVGMNLTRTATPAPSQTLISSATYTQIQPHSLIQQQQQIHLQQKQVVIQQQIAIHHQQQFQHRQSQLLHTATHLQLAQQQQQQQQQQQQQQQPQATTLTAPQPPQVPPTQQVPPSQSQQQAQTLVVQPMLQSSPLSLPPDAAPKPPIPIQSKPPVAPIKPPQLGAAKMSAAQQPPPHIPVQVVGTRQPGTAQAQALGLAQLAAAVPTSRGMPGTVQSGQAHLASSPPSSQAPGALQECPPTLAPGMTLAPVQGTAHVVKGGATTSSPVVAQVPAAFYMQSVHLPGKPQTLAVKRKADSEEERDDVSTLGSMLPAKASPVAESPKVMDEKSSLGEKAESVANVNANTPSSELVALTPAPSVPPPTLAMVSRQMGDSKPPQAIVKPQILTHIIEGFVIQEGAEPFPVGCSQLLKESEKPLQTGLPTGLTENQSGGPLGVDSPSAELDKKANLLKCEYCGKYAPAEQFRGSKRFCSMTCAKRYNVSCSHQFRLKRKKMKEFQEANYARVRRRGPRRSSSDIARAKIQGKCHRGQEDSSRGSDNSSYDEALSPTSPGPLSVRAGHGERDLGNPNTAPPTPELHGINPVFLSSNPSRWSVEEVYEFIASLQGCQEIAEEFRSQEIDGQALLLLKEEHLMSAMNIKLGPALKICAKINVLKET
Take B3: the binding result in assay [2] and in assay [3] was “binds” throughout.

B4: CBX4 (protein, UniProt O00257 1-560)
chain: MELPAVGEHVFAVESIEKKRIRKGRVEYLVKWRGWSPKYNTWEPEENILDPRLLIAFQNRERQEQLMGYRKRGPKPKPLVVQVPTFARRSNVLTGLQDSSTDNRAKLDLGAQGKGQGHQYELNSKKHHQYQPHSKERAGKPPPPGKSGKYYYQLNSKKHHPYQPDPKMYDLQYQGGHKEAPSPTCPDLGAKSHPPDKWAQGAGAKGYLGAVKPLAGAAGAPGKGSEKGPPNGMMPAPKEAVTGNGIGGKMKIVKNKNKNGRIVIVMSKYMENGMQAVKIKSGEVAEGEARSPSHKKRAADERHPPADRTFKKAAGAEEKKVEAPPKRREEEVSGVSDPQPQDAGSRKLSPTKEAFGEQPLQLTTKPDLLAWDPARNTHPPSHHPHPHPHHHHHHHHHHHHAVGLNLSHVRKRCLSETHGEREPCKKRLTARSISTPTCLGGSPAAERPADLPPAAALPQPEVILLDSDLDEPIDLRCVKTRSEAGEPPSSLQVKPETPASAAVAVAAAAAPTTTAEKPPAEAQDEPAESLSEFKPFFGNIIITDVTANCLTVTFKEYVTV
For the molecule B4, the binding entry in assay [2] and in assay [3] was “binds” throughout.

(Values after paper PMC11432245.)
